In PubChem BioAssay AID2284333 (EPA ToxCast):
The shares of active, inactive and inconclusive entries below differ from those in the screen. Where the call is inconclusive, the potency comes from a doubtful curve fit. Active and inactive are the calls of the source. Rule for the calls: active = hit-call score of the fitted dose curve at least 0.9, where 1 is the maximum; inconclusive = response in the unintended direction; inactive = score below 0.9.

Chains of the proteins cited; added tags and fusions are not shown. Lines headed by an entry give the natural chain unless they say otherwise; changes in a name come on top.
UniProt P49843: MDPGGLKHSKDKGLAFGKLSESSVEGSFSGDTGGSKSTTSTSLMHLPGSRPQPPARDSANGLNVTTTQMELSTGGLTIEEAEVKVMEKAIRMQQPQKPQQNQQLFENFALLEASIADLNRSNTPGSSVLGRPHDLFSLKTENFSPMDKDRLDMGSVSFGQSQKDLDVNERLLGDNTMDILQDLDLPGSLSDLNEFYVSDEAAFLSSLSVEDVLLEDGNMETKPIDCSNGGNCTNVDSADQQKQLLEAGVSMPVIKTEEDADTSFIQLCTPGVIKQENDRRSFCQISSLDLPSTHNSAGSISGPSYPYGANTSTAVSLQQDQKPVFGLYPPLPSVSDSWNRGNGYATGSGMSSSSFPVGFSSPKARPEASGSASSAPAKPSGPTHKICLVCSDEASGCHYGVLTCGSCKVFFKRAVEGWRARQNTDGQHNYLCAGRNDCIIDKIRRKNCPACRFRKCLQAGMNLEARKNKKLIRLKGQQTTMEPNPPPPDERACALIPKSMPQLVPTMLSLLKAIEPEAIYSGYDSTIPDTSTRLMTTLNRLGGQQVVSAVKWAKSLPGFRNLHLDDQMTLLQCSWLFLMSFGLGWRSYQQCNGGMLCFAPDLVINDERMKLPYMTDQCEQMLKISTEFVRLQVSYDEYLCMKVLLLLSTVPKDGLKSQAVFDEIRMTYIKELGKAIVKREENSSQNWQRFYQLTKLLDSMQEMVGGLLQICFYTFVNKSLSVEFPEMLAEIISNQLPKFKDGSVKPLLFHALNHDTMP

What follows are molecules tested against rainbow trout Glucocorticoid Receptor (GR), nr3c1 (gene 100136786) (UniProt P49843) (assay: ATG_rtGR_EcoTox2: Attagene TRANS-FACTORIAL EcoTox-2 HepG2 Assay for rainbow trout Glucocorticoid Receptor (GR)).
Protocol: ATG_EcoTox2 is a cell-based, multiplexed assay created by modifying the existing Attagene TRANS-FACTORIAL system to include a panel of nuclear receptors from some or all the following species: human (Homo sapiens), african clawed frog (Xenopus laevis), rainbow trout (Oncorhynchus mykiss), japanese medaka (Oryzias latipes), and zebrafish (Danio rerio). The ECOTOX2-FACTORIAL format uses HepG2, a human liver cell line, with measurements taken at 24 hours after chemical dosing in a 24-well plate. ATG_rtGR_EcoTox2 is one of 29 assay components calculated in the ATG_EcoTox2 assay. It is designed to make measurements of mRNA induction, a form of inducible reporter, as detected with fluorescence intensity signals by Reverse transcription polymerase chain reaction (RT-PCR) and Capillary electrophoresis technology.The assay endpoint ATG_rtGR_EcoTox2 was analyzed in the positive analysis fitting direction relative to DMSO as the negative control and baseline of activity. Using a type of inducible reporter, measures of mRNA for gain-of-signal activity can be used to understand the reporter gene at the transcription factor-level as they relate to the gene for glucocorticoid receptor. Furthermore, this assay endpoint can be referred to as a primary readout, because this assay has produced multiple assay endpoints where this one serves a reporter gene function. To generalize the intended target to other relatable targets, this assay endpoint is annotated to the nuclear receptor intended target family, where the subfamily is steroidal.
Human liver HepG2 cells are transiently transfected with multiple reporter transcription units (MRTUs) in 6-well plates using FuGene 6 reagent (Roche; 3 ml FuGene/1 mg DNA). The MRTU constructs are regulated by a cis-regulating element (promoter). Each RTU expresses a GAL4-UAS that regulates the transcription of a nearby target reporter gene sequence. A major difference between the CIS and TRANS system is that in CIS activities of endogenous TFs are measured, whereas the TRANS assay evaluates changes in activities of exogenous, chimeric NR-Gal4 proteins. […] At the end of 24 hour incubation, total RNA was isolated using TriZol reagent (Invitrogen). The isolated RNA is then reverse-transcribed using oligo(dT) primer and Mo-MLV reverse transcriptase (Invitrogen) with DNAse I (Ambion) treatment for 30 min. The one-tenth of the produced cDNA was amplified by PCR using Taq DNA polymerase (Invitrogen) and two reporter sequence-specific primers. The PCR products were fluorescently labeled by primer extension with 6-arboxyfluorescein (6-FAM) 5'-labeled reporter sequence-specific primer (2 min at 95 C, 20 s at 68 C and 10 min at 72 C) and these products were digested with 5U of HpaI (New England Biolabs) for 2h at 37 C. The fragments were purified using Qiaquick PCR columns (Qiagen), analyzed on an ABI 3130xL genetic analyzer (Applied Biosystems) with peak positions identified by using a set of X-rhodamine (ROX)-labeled MapMarker1000 molecular weight standards (BioVentures). The raw capillary electrophoresis data was processed using Attagraph software (Attagene).

Structure (SMILES)	AC50	outcome
Cc1nc(-c2ccc(C(F)(F)F)cc2)sc1C(=O)NCc1ccc(OC(C)(C)C(=O)O)cc1	inconclusive: 0.615 µM	–
CC(C)(Oc1ccc(CCNC(=O)c2ccc(Cl)cc2)cc1)C(=O)O	inconclusive: 100 µM	–
CC(C)(Oc1ccc(C2CC2(Cl)Cl)cc1)C(=O)O (stereo unspecified)	inconclusive: 100 µM	–
CN(CCOc1ccc(CC2SC(=O)NC2=O)cc1)c1ccccn1 (stereo unspecified)	inconclusive: 0.22 µM	–
Cc1ccc(C)c(OCCCC(C)(C)C(=O)O)c1	–	inactive
Cc1c(C)c2c(c(C)c1O)CCC(C)(COc1ccc(CC3SC(=O)NC3=O)cc1)O2 (stereo unspecified)	inconclusive: 16.6 µM	–
C[C@@H]1C[C@H]2[C@@H]3CCC4=CC(=O)C=C[C@]4(C)[C@@]3(F)[C@@H](O)C[C@]2(C)[C@@]1(O)C(=O)COP(=O)(O)O	active: 0.0206 µM	–
CC(C)(Oc1ccc(Cl)cc1)C(=O)O	–	inactive
Cc1cccc(Nc2cc(Cl)nc(SCC(=O)O)n2)c1C	inconclusive: 2.21 µM	–
C[C@]12C=CC(=O)C=C1CC[C@@H]1[C@@H]2C(=O)C[C@@]2(C)[C@H]1CC[C@]2(O)C(=O)CO	inconclusive: 12.2 µM	–
CC(C)OC(=O)C(C)(C)Oc1ccc(C(=O)c2ccc(Cl)cc2)cc1	–	inactive

Another view of some results above.
Structure (SMILES) | AC50 | outcome
CC(C)(Oc1ccc(CCNC(=O)c2ccc(Cl)cc2)cc1)C(=O)O | inconclusive: 100 µM | –
C[C@@H]1C[C@H]2[C@@H]3CCC4=CC(=O)C=C[C@]4(C)[C@@]3(F)[C@@H](O)C[C@]2(C)[C@@]1(O)C(=O)COP(=O)(O)O | active: 0.0206 µM | –
